Test results reported in the supplement of paper PMC7830784.
Structures can show the parent of a compound that is named as a salt. The list shows a part of the results. Repeats in this data set agree poorly, so a single value says little.

System: Brugia pahangi adult female
Test: motility inhibition on day 3 relative to DMSO vehicle; higher = more active
Conditions: 10 µM; 3 days

Compound	motility inhibition on day 3
O=C(N/N=C/c1ccc([N+](=O)[O-])o1)c1ccc(O)cc1 [nifuroxazide]	61.6%
CN(C)CCCOc1nn(Cc2ccccc2)c2ccccc12 [benzydamine hydrochloride]	3.66%
CCCCC(=O)O[C@]1(C(=O)CO)[C@@H](C)C[C@H]2[C@@H]3CCC4=CC(=O)C=C[C@]4(C)[C@@]3(F)[C@@H](O)C[C@@]21C [betamethasone valerate]	14.1%
CC(=O)OCC(=O)[C@@]1(O)CC[C@H]2[C@@H]3CCC4=CC(=O)C=C[C@]4(C)[C@@]3(F)[C@@H](O)C[C@@]21C [isoflupredone acetate]	25.2%
COc1cc(C(=O)N2CCOCC2)cc(OC)c1OC [trimetozine]	4.26%
CC(=O)OCC(=O)[C@@]1(O)CC[C@H]2[C@@H]3CCC4=CC(=O)CC[C@]4(C)[C@H]3C(=O)C[C@@]21C [cortisone acetate]	< 0%
C#C[C@]1(O)CC[C@H]2[C@@H]3[C@H](C)CC4=C(CCC(=O)C4)[C@H]3CC[C@@]21C [tibolone]	7.01%
OC[C@@H](O)[C@@H](O)[C@H](O)[C@@H](O)CO [sorbitol]	15.8%
S=C=Nc1ccc(N=C=S)cc1 [bitoscanate]	6.07%
CC1CCC(NC(=O)N(CCCl)N=O)CC1 (centres undefined) [semustine]	17%
COc1cc2nc(N3CCN(C(=O)C4CCCO4)CC3)nc(N)c2cc1OC (centres undefined) [terazosin hydrochloride]	17.5%
Oc1ccc(O)cc1 [hydroquinone]	< 0%
Cc1cc2nc3ccc(N(C)C)cc3[s+]c2cc1N [tolonium chloride]	87.3%
Nc1ccc(S(=O)(=O)Nc2ccc(Cl)nn2)cc1 [sulfachlorpyridazine]	13%
CC(C)OC(=O)CCC/C=C\C[C@@H]1[C@@H](CC[C@@H](O)CCc2ccccc2)[C@H](O)C[C@@H]1O	< 0%
O=c1[nH]c(=O)n([C@H]2C[C@H](O)[C@@H](CO)O2)cc1F [floxuridine]	15.3%
Nc1ccc(C(=O)Oc2ccccc2)c(O)c1 [fenamisal]	2.53%
CNNCc1ccc(C(=O)NC(C)C)cc1 [procarbazine hydrochloride]	15.9%
NS(=O)(=O)c1cc2c(cc1Cl)NCNS2(=O)=O [Hydrochlorothiazide]	5.44%
CN(C)CCC=C1c2ccccc2C=Cc2ccccc21 [cyclobenzaprine hydrochloride]	13.4%
CCC(=O)O[C@H]1[C@H](O[C@@H]2[C@@H](C)[C@H](O[C@H]3C[C@@](C)(OC)[C@@H](O)[C@H](C)O3)[C@@H](C)C(=O)O[C@H](CC)[C@@](C)(O)[C@H](O)[C@@H](C)C(=O)[C@H](C)C[C@@]2(C)O)O[C@H](C)C[C@@H]1N(C)C [erythromycin estolate]	4.66%
Nc1ncnc2c1ncn2[C@@H]1O[C@H](COP(=O)(O)O)[C@@H](O)[C@H]1O [adenosine phosphate]	10.6%
CC1=C(/C=C/C(C)=C/C=C/C(C)=C/C(=O)Nc2ccc(O)cc2)C(C)(C)CCC1 [Fenretinide]	15.4%
CC(c1cc2ccccc2s1)N(O)C(N)=O (centres undefined) [zileuton]	< 0%
O=C(O)c1cc(O)c2c(c1)[C@H]([C@H]1c3cc(C(=O)O)cc(O)c3C(=O)c3c(O[C@@H]4O[C@H](CO)[C@@H](O)[C@H](O)[C@H]4O)cccc31)c1cccc(O[C@@H]3O[C@H](CO)[C@@H](O)[C@H](O)[C@H]3O)c1C2=O [sennoside a]	39.9%

4 structures out of the list, arranged by count of non-hydrogen atoms, high to low.
Compound	motility inhibition on day 3
CC(=O)OCC(=O)[C@@]1(O)CC[C@H]2[C@@H]3CCC4=CC(=O)CC[C@]4(C)[C@H]3C(=O)C[C@@]21C [cortisone acetate]	< 0%
Nc1ccc(S(=O)(=O)Nc2ccc(Cl)nn2)cc1 [sulfachlorpyridazine]	13%
O=c1[nH]c(=O)n([C@H]2C[C@H](O)[C@@H](CO)O2)cc1F [floxuridine]	15.3%
CC1CCC(NC(=O)N(CCCl)N=O)CC1 (centres undefined) [semustine]	17%

Remaining list, next part.

Compound	motility inhibition on day 3
CC(=O)Oc1cc(C(C)C)c(OCCN(C)C)cc1C [moxisylyte hydrochoride]	24%
Nc1ccc(S(=O)(=O)c2ccc(N)cc2)cc1 [dapsone]	< 0%
OCCN1CCN(CCCN2c3ccccc3Sc3ccc(Cl)cc32)CC1 [perphenazine]	< 0%
CN(C)CCc1c[nH]c2ccc(Cn3cncn3)cc12 [rizatriptan benzoate]	0.34%
Cn1nnnc1SCC1=C(C(=O)O)N2C(=O)[C@@H](NC(=O)[C@H](O)c3ccccc3)[C@H]2SC1 [cefamandole sodium]	< 0%
CCC[C@H](N[C@@H](C)C(=O)N1[C@H](C(=O)O)C[C@@H]2CCCC[C@@H]21)C(=O)OCC [perindopril erbumine]	11.5%
COc1ccc(NS(=O)(=O)c2ccc(N)cc2)nn1 [sulfamethoxypyridazine]	14.1%
Nc1ccc(C(=O)NCC(=O)O)cc1 [aminohippuric acid]	5.15%
CC1(C)OC(=O)NC1=O [dimethadione]	< 0%
N=C(N)NCC1COC2(CCCCC2)O1 (centres undefined) [guanadrel sulfate]	0.882%
CC(=O)Oc1cccc2c1C(=O)c1c(OC(C)=O)cc(C(=O)O)cc1C2=O [diacerin]	13%
Cc1ncc(CSSCc2cnc(C)c(O)c2CO)c(CO)c1O [pyritinol]	14.7%
O=C(Nc1ncc([N+](=O)[O-])s1)c1ccccc1O [Tizoxanide]	99%
N=C(N)NC(=N)N1CCOCC1 [moroxydine hydrochloride]	17.4%
N[C@H]1C(O)O[C@H](CO)[C@@H](O)[C@@H]1O (some centres undefined) [glucosamine hydrochloride]	16.3%
C=C1C[C@H]2[C@@H]3C=C(C)C4=CC(=O)CC[C@]4(C)[C@H]3CC[C@]2(C)[C@@]1(OC(C)=O)C(C)=O [melengestrol acetate]	46.7%
CN1CCCC(n2nc(Cc3ccc(Cl)cc3)c3ccccc3c2=O)CC1 (centres undefined) [azelastine hydrochloride]	3.8%
O=C(CNC(=O)c1ccc(Cl)cc1)NO [benurestat]	7.12%
CC1=CC(=O)NS(=O)(=O)O1 [acesulfame potassium]	0.709%
CN(C)CCC[C@@]1(c2ccc(F)cc2)OCc2cc(C#N)ccc21 [escitalopram oxalate]	< 0%
CCCC(=O)Nc1ncnc2c1ncn2[C@@H]1O[C@@H]2COP(=O)(O)O[C@H]2[C@H]1OC(=O)CCC [bucladesine]	4.28%
NC(=O)N/N=C/c1ccc([N+](=O)[O-])o1 [nitrofurazone]	40.6%
O=C(O[C@H]1CN2CCC1CC2)N1CCc2ccccc2[C@@H]1c1ccccc1 [solifenacin succinate]	22.3%
CN1CCCCC1CCN1c2ccccc2Sc2ccc([S+](C)[O-])cc21 (centres undefined) [mesoridazine besylate]	12.4%
CO[C@@H]1[C@@H](OC(N)=O)[C@@H](O)[C@H](Oc2ccc3c(O)c(NC(=O)c4ccc(O)c(CC=C(C)C)c4)c(=O)oc3c2C)OC1(C)C [novobiocin sodium]	8.71%

2 of these compounds, set out differently:
CCC(=O)O[C@H]1[C@H](O[C@@H]2[C@@H](C)[C@H](O[C@H]3C[C@@](C)(OC)[C@@H](O)[C@H](C)O3)[C@@H](C)C(=O)O[C@H](CC)[C@@](C)(O)[C@H](O)[C@@H](C)C(=O)[C@H](C)C[C@@]2(C)O)O[C@H](C)C[C@@H]1N(C)C [erythromycin estolate]
  motility inhibition on day 3: 4.66%
COc1ccc(NS(=O)(=O)c2ccc(N)cc2)nn1 [sulfamethoxypyridazine]
  motility inhibition on day 3: 14.1%

Remaining list, next part

Compound	motility inhibition on day 3
CCN1CCN(C(=O)N[C@@H](C(=O)N[C@@H]2C(=O)N3[C@@H]2SC(C)(C)[C@@H]3C(=O)O)c2ccccc2)C(=O)C1=O [piperacillin sodium]	24.9%
CC(=O)Oc1cccc(O)c1 [resorcinol monoacetate]	33.7%
Cc1ncc([N+](=O)[O-])n1CCO [metronidazole]	30.9%
CCN(CC)CC#CCOC(=O)C(O)(c1ccccc1)C1CCCCC1 (centres undefined) [oxybutynin chloride]	4.89%
OC(CCN1CCCCC1)(c1ccccc1)C1CC2C=CC1C2 (centres undefined) [biperiden]	13.3%
CCN(Cc1ccncc1)C(=O)C(CO)c1ccccc1 (centres undefined) [Tropicamide]	12.6%
CC(C)N1CCN(c2ccc(OCC3COC(Cn4cncn4)(c4ccc(Cl)cc4Cl)O3)cc2)CC1 (centres undefined) [terconazole]	0.568%
CN1C2CCCC1CC(NC(=O)c1nn(C)c3ccccc13)C2 (centres undefined) [granisetron hydrochloride]	2.97%
NC[C@H]1O[C@H](O[C@H]2[C@H](O[C@@H]3O[C@H](CO)[C@@H](O)[C@H]3O)[C@@H](O)[C@H](N)C[C@@H]2N)[C@H](N)[C@@H](O)[C@@H]1O [ribostamycin sulfate]	4.88%
Cc1ccc(C(=O)c2cc(O)c(O)c([N+](=O)[O-])c2)cc1 [Tolcapone]	< 0%
COc1ccc2[nH]cc(CCNC(C)=O)c2c1 [Melatonin]	< 0%
O=C([O-])c1ccccc1O.[Na+] [sodium salicylate]	15.4%
C=CC[C@@H]1/C=C(\C)C[C@H](C)C[C@H](OC)[C@H]2O[C@@](O)(C(=O)C(=O)N3CCCC[C@H]3C(=O)O[C@H](/C(C)=C/[C@@H]3CC[C@@H](O)[C@H](OC)C3)[C@H](C)[C@@H](O)CC1=O)[C@H](C)C[C@@H]2OC [tacrolimus]	18.5%
COCc1c(C(C)C)nc(C(C)C)c(/C=C/[C@@H](O)C[C@@H](O)CC(=O)O)c1-c1ccc(F)cc1	< 0%
Cc1ccc(S(=O)(=O)NC(=O)NN2CC3CCCC3C2)cc1 (centres undefined) [gliclazide]	2.13%
CC(=O)N[C@@H](CC(=O)N[C@@H](CCC(=O)O)C(=O)O)C(=O)O [spaglumic acid]	16.2%
NCCS(=O)(=O)O [taurine]	3.39%
COc1cc2nc(N3CCN(C(=O)c4ccco4)CC3)nc(N)c2cc1OC [prazosin hydrochloride]	13.9%
CCn1cc(C(=O)O)c(=O)c2cnc(N3CCNCC3)nc21 [pipemidic acid]	19.4%
Oc1c(I)cc(I)c2cccnc12 [iodoquinol]	87.6%
CCN(CC)CCNC(=O)c1cc(S(C)(=O)=O)ccc1OC [tiapride hydrochloride]	4.78%
O=C(CCCN1CC=C(n2c(=O)[nH]c3ccccc32)CC1)c1ccc(F)cc1 [droperidol]	6.36%
COc1ccc2cc(CCC(C)=O)ccc2c1 [nabumetone]	< 0%
O=C(O)CCC(=O)OC[C@@H](NC(=O)C(Cl)Cl)[C@H](O)c1ccc([N+](=O)[O-])cc1 [chloramphenicol hemisuccinate]	10.9%
